Measurements as given in the supplement of paper PMC12823440, “Inhibitors supercharge kinase turnover through native proteolytic circuits” (Nature, 2025).
Where a name gives a salt, the structure may show the parent alone. The list shows a part of the results. Hit calls seldom repeat between salt and free forms of one compound.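 Kinases, fused to nanoluciferase, were expressed in K562 cells; luminescence was measured every 4 h from 2 to 18 h as percent of control (DMSO = 100%, positive control = 0%). A time point is decreased if signal falls significantly (2 sigma). Hits were called by the authors by a rule that is not shown; the count of time points alone does not decide it.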

Chains of the proteins cited; added tags and fusions are not shown. Lines headed by an entry give the natural chain unless they say otherwise; changes in a name come on top.
UniProt P23458: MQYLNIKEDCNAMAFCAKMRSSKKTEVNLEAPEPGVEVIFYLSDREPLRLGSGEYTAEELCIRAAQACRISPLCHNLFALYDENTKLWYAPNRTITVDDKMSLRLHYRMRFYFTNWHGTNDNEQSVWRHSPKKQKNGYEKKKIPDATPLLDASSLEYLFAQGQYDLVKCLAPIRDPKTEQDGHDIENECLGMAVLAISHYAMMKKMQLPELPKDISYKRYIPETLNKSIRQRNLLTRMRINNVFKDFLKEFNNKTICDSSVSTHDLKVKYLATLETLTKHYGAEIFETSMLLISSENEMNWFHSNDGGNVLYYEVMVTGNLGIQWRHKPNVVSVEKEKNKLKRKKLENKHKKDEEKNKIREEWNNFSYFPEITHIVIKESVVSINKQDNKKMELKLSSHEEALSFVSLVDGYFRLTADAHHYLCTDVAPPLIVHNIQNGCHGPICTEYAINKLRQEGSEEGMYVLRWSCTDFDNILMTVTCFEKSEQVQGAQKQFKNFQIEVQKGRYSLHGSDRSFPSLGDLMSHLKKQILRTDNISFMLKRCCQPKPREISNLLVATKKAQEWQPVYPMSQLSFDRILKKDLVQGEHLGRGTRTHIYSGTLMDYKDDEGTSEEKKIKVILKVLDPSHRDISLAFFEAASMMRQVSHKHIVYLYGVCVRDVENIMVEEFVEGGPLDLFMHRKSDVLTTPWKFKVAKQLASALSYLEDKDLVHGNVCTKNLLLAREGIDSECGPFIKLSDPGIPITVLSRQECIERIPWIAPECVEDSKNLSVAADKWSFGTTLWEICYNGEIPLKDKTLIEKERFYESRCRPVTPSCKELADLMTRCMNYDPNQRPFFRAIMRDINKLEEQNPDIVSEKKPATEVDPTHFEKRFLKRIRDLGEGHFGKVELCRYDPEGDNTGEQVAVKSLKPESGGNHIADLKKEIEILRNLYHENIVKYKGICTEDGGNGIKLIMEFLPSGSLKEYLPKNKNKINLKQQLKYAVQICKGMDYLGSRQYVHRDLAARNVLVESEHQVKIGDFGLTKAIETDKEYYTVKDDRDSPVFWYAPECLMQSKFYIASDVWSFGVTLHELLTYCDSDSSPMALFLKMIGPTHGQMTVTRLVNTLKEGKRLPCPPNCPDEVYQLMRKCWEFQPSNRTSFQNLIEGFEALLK
UniProt P06239: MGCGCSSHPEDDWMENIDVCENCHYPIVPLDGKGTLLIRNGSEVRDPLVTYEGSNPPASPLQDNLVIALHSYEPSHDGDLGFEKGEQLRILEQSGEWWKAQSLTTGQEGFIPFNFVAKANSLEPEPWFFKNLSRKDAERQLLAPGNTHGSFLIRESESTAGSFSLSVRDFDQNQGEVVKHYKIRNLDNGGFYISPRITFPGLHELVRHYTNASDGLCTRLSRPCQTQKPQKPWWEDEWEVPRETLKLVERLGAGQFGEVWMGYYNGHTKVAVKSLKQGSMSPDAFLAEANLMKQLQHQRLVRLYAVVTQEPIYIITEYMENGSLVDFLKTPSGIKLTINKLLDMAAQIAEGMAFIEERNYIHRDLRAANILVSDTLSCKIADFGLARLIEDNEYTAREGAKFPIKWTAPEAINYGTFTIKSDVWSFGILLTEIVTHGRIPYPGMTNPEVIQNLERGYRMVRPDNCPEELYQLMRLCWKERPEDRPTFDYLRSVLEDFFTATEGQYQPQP
UniProt P53667: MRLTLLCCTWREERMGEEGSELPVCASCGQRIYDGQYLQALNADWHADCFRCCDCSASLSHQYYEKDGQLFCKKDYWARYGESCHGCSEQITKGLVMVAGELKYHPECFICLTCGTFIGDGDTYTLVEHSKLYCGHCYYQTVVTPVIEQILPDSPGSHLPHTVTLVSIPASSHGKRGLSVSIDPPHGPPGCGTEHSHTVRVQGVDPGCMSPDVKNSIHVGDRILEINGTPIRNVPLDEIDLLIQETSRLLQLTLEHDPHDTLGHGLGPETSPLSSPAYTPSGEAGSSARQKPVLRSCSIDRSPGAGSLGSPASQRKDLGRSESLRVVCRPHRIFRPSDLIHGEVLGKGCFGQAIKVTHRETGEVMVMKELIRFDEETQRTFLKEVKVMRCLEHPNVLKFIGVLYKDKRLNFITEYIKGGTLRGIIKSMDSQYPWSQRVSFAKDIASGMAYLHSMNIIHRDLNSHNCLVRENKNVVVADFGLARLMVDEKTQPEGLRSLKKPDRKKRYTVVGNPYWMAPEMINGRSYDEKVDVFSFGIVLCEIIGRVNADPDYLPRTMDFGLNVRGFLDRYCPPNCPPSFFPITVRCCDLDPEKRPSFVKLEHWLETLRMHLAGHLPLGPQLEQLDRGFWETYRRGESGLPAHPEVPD
UniProt P53671: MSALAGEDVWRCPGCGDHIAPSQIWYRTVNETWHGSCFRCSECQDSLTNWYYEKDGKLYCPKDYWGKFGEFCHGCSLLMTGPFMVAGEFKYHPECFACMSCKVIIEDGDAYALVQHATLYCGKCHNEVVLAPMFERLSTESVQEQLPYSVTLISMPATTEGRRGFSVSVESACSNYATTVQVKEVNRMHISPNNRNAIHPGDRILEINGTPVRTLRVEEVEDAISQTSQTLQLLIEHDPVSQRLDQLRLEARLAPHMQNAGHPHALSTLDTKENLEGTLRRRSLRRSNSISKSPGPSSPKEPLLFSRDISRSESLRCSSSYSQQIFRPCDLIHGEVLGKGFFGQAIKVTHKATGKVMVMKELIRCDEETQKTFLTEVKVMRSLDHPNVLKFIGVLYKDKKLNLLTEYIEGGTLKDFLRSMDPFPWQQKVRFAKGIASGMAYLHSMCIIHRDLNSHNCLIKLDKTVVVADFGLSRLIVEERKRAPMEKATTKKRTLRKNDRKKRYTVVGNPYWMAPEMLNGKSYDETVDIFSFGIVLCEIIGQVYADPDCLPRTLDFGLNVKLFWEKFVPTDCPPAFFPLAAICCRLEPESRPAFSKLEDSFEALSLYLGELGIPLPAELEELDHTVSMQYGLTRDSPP
UniProt P07948: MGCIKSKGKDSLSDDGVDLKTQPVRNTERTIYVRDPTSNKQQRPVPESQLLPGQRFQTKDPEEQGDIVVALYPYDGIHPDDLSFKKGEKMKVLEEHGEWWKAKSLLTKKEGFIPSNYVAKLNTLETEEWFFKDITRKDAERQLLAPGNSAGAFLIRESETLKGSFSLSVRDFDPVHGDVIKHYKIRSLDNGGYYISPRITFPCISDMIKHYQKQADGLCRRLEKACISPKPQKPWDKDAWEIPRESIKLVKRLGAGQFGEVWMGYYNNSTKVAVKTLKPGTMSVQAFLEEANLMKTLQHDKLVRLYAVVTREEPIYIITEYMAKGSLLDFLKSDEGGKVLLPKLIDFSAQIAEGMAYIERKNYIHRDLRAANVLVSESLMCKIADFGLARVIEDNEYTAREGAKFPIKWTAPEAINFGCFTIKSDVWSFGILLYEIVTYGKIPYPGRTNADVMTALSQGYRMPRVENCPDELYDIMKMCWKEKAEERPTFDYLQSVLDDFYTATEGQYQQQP
UniProt Q12851: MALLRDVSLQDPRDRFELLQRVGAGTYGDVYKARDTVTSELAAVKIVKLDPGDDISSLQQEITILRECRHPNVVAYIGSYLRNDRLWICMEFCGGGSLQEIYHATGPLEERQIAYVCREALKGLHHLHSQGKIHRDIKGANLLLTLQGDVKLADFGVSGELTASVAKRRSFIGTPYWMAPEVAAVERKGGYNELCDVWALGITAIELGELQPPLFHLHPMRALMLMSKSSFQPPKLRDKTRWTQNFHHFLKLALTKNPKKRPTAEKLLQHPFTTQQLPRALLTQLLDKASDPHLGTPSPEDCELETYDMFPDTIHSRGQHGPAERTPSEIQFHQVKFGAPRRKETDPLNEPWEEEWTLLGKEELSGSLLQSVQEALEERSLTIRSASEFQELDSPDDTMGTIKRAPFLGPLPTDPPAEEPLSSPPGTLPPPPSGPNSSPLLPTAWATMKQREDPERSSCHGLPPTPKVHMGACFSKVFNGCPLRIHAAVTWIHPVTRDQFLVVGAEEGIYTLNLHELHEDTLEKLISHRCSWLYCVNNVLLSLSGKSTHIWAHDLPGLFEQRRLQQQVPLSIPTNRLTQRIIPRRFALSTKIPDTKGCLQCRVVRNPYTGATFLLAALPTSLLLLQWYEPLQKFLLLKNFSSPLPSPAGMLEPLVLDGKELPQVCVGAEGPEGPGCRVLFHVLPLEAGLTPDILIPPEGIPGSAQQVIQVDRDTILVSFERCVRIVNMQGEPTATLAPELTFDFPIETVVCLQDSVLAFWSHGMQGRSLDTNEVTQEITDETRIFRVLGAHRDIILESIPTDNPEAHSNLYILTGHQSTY
UniProt P28482, whole entry: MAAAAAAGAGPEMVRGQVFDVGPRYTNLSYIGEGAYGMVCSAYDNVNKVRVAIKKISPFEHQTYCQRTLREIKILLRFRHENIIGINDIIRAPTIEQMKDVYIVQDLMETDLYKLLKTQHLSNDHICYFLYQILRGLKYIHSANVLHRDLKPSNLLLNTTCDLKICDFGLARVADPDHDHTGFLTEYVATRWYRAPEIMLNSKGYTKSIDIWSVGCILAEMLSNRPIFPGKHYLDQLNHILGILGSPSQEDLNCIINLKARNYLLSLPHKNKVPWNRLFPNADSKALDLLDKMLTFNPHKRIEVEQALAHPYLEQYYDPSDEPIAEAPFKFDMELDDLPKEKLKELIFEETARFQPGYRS
UniProt Q16620, whole entry, looked up: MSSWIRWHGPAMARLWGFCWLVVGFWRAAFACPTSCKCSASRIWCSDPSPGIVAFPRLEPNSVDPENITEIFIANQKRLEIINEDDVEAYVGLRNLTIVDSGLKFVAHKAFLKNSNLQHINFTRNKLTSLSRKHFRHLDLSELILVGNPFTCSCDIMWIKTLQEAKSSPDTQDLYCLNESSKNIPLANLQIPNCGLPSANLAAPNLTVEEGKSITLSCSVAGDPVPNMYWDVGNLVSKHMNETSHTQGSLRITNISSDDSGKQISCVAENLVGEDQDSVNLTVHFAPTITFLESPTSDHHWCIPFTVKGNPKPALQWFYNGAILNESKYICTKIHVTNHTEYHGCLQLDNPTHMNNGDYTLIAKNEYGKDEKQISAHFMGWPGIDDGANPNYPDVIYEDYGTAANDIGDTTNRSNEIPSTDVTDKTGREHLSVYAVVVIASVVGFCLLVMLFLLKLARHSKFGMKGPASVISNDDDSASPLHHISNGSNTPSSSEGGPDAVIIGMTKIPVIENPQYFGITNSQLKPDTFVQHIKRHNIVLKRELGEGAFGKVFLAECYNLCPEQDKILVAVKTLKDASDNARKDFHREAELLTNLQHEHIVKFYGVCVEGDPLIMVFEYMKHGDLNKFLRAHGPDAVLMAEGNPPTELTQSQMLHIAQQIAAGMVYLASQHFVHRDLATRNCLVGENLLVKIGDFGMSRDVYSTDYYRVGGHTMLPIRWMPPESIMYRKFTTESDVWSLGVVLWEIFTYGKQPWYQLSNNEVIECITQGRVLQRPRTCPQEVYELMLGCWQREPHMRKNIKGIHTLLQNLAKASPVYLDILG
UniProt Q96KB5: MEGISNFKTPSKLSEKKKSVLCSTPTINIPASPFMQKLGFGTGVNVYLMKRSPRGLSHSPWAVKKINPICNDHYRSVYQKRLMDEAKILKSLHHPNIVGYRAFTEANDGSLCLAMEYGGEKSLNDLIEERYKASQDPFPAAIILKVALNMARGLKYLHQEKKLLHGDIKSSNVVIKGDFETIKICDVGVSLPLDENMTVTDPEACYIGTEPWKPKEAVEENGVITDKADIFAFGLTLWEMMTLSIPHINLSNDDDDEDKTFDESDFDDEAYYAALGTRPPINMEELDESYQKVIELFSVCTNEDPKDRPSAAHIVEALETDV
UniProt Q15118, whole entry, looked up: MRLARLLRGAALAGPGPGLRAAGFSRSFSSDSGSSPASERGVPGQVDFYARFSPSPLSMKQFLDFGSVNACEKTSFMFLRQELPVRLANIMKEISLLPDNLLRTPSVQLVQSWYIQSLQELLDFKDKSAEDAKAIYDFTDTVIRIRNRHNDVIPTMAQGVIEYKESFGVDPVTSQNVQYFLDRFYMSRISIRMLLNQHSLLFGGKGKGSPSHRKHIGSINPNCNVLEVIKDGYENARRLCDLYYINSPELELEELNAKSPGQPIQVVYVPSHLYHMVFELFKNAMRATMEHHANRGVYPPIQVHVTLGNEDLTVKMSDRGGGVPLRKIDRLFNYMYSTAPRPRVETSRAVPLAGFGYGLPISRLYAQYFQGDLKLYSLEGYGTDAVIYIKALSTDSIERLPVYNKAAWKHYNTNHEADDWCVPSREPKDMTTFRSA

What was measured:
Assay in all cases: kinase-Nluc reporter destabilization hit call (1 = scored as downregulated) (binary); higher = compound decreases kinase abundance
Conditions in all cases: K562; 2-18 h
IRAK3 = IRAK3 (UniProt Q9Y616)
JAK1 = JAK1 (UniProt P23458)
LCK = LCK (UniProt P06239)
LIMK1 = LIMK1 (UniProt P53667)
LIMK2 = LIMK2 (UniProt P53671)
LMTK2 = LMTK2 (UniProt Q8IWU2)
LYN = LYN (UniProt P07948)
MAP2K1 = MAP2K1 (UniProt Q02750)
MAP2K2 = MAP2K2 (UniProt P36507)
MAP4K2 = MAP4K2 (UniProt Q12851)
MAPK1 = MAPK1 (UniProt P28482)
MAPK4 = MAPK4 (UniProt P31152)
MAPKAPK2 = MAPKAPK2 (UniProt P49137)
MKNK1 = MKNK1 (UniProt Q9BUB5)
NTRK2 = NTRK2 (UniProt Q16620)
NTRK3 = NTRK3 (UniProt Q16288)
PAK4 = PAK4 (UniProt O96013)
PBK = PBK (UniProt Q96KB5)
PDGFRB = PDGFRB (UniProt P09619)
PDK1 = PDK1 (UniProt Q15118)

Measured: kinase-Nluc reporter destabilization hit call

CCCCCCCCCCCCC/C=C/[C@@H](O)[C@@H](N)CO [D-erythro-Sphingosine] (2.5 µM)
inactive: IRAK3 = 0 | JAK1 = 0 | LCK 0 | LIMK1 = 0 | LIMK2 = 0 | LMTK2 = 0 | LYN 0 | MAP2K1 = 0 | MAP2K2 = 0 | MAP4K2 = 0 | MAPK1 = 0 | MAPK4 = 0 | MAPKAPK2 = 0 | MKNK1 = 0 | NTRK2 = 0 | NTRK3 = 0 | PAK4 = 0 | PBK 0 | PDGFRB 0 | PDK1 = 0

Cc1ccc2cc(-c3c(C)ccc(C(=O)c4c(-c5ccccc5)n(C)n(-c5ccccc5)c4=O)c3N)ccc2n1 (2.5 µM)
inactive: IRAK3 = 0 | JAK1 = 0 | LCK 0 | LIMK1 = 0 | LIMK2 = 0 | LMTK2 = 0 | LYN 0 | MAP2K1 = 0 | MAP2K2 = 0 | MAP4K2 = 0 | MAPK1 = 0 | MAPK4 = 0 | MAPKAPK2 = 0 | MKNK1 = 0 | NTRK2 = 0 | NTRK3 = 0 | PAK4 = 0 | PBK 0 | PDGFRB 0 | PDK1 = 0

Cc1cccc(Oc2cnc(=O)[nH]c2)c1 [Tolimidone] (10 µM)
inactive: IRAK3 = 0 | JAK1 = 0 | LCK 0 | LIMK1 = 0 | LIMK2 = 0 | LMTK2 = 0 | LYN 0 | MAP2K1 = 0 | MAP2K2 = 0 | MAP4K2 = 0 | MAPK1 = 0 | MAPK4 = 0 | MAPKAPK2 = 0 | MKNK1 = 0 | NTRK2 = 0 | NTRK3 = 0 | PAK4 = 0 | PBK 0 | PDGFRB 0 | PDK1 = 0

Cc1cc(Nc2ncnc3ccc(NC4=NC(C)(C)CO4)cc23)ccc1Oc1ccn2ncnc2c1 [Tucatinib (hemiethanolate)] (2.5 µM)
inactive: IRAK3 = 0 | JAK1 = 0 | LCK 0 | LIMK1 = 0 | LIMK2 = 0 | LMTK2 = 0 | LYN 0 | MAP2K1 = 0 | MAP2K2 = 0 | MAP4K2 = 0 | MAPK1 = 0 | MAPK4 = 0 | MAPKAPK2 = 0 | MKNK1 = 0 | NTRK2 = 0 | NTRK3 = 0 | PAK4 = 0 | PBK 0 | PDGFRB 0 | PDK1 = 0

Cn1cc(-c2cnn3c(N)c(Br)c([C@@H]4CCCNC4)nc23)cn1 (2.5 µM)
inactive: IRAK3 = 0 | JAK1 = 0 | LCK 0 | LIMK1 = 0 | LIMK2 = 0 | LMTK2 = 0 | LYN 0 | MAP2K1 = 0 | MAP2K2 = 0 | MAP4K2 = 0 | MAPK1 = 0 | MAPK4 = 0 | MAPKAPK2 = 0 | MKNK1 = 0 | NTRK2 = 0 | NTRK3 = 0 | PAK4 = 0 | PBK 0 | PDGFRB 0 | PDK1 = 0

COc1ccc(Cl)c(Nc2nc3ccccc3nc2NS(=O)(=O)c2cccc(NC(=O)C(C)(C)N)c2)c1 [Pilaralisib] (10 µM)
inactive: IRAK3 = 0 | JAK1 = 0 | LCK 0 | LIMK1 = 0 | LIMK2 = 0 | LMTK2 = 0 | LYN 0 | MAP2K1 = 0 | MAP2K2 = 0 | MAP4K2 = 0 | MAPK1 = 0 | MAPK4 = 0 | MAPKAPK2 = 0 | MKNK1 = 0 | NTRK2 = 0 | NTRK3 = 0 | PAK4 = 0 | PBK 0 | PDGFRB 0 | PDK1 = 0

C[C@@H]1CCN(C(=O)CC#N)C[C@@H]1N(C)c1ncnc2[nH]ccc12 [Tofacitinib] (10 µM)
inactive: IRAK3 = 0 | LCK 0 | LIMK1 = 0 | LIMK2 = 0 | LMTK2 = 0 | LYN 0 | MAP2K1 = 0 | MAP2K2 = 0 | MAP4K2 = 0 | MAPK1 = 0 | MAPK4 = 0 | MAPKAPK2 = 0 | MKNK1 = 0 | NTRK2 = 0 | NTRK3 = 0 | PAK4 = 0 | PBK 0 | PDK1 = 0

FC(F)(c1ccc2ncccc2c1)c1nnc2ccc(-c3ccncc3)nn12 (10 µM)
inactive: IRAK3 = 0 | JAK1 = 0 | LCK 0 | LIMK1 = 0 | LIMK2 = 0 | LMTK2 = 0 | LYN 0 | MAP2K1 = 0 | MAP2K2 = 0 | MAP4K2 = 0 | MAPK1 = 0 | MAPK4 = 0 | MAPKAPK2 = 0 | MKNK1 = 0 | NTRK2 = 0 | NTRK3 = 0 | PAK4 = 0 | PBK 0 | PDGFRB 0 | PDK1 = 0

COc1cc2c(N3CCN(C(=O)Nc4ccc(OC(C)C)cc4)CC3)ncnc2cc1OCCCN1CCCCC1 [Tandutinib (hydrochloride)] (10 µM)
inactive: IRAK3 = 0 | JAK1 = 0 | LCK 0 | LIMK1 = 0 | LIMK2 = 0 | LMTK2 = 0 | LYN 0 | MAP2K1 = 0 | MAP2K2 = 0 | MAP4K2 = 0 | MAPK1 = 0 | MAPK4 = 0 | MAPKAPK2 = 0 | MKNK1 = 0 | NTRK2 = 0 | PAK4 = 0 | PBK 0 | PDK1 = 0

NS(=O)(=O)c1ccc(-n2nc(C(F)(F)F)cc2-c2ccc(Cl)cc2)cc1 (10 µM)
inactive: IRAK3 = 0 | JAK1 = 0 | LCK 0 | LIMK1 = 0 | LIMK2 = 0 | LMTK2 = 0 | LYN 0 | MAP2K1 = 0 | MAP2K2 = 0 | MAP4K2 = 0 | MAPK1 = 0 | MAPK4 = 0 | MAPKAPK2 = 0 | MKNK1 = 0 | NTRK2 = 0 | NTRK3 = 0 | PAK4 = 0 | PBK 0 | PDGFRB 0 | PDK1 = 0

Cc1ccc2nc(NCCN)c3ncc(C)n3c2c1 (2.5 µM)
inactive: IRAK3 = 0 | JAK1 = 0 | LCK 0 | LIMK1 = 0 | LIMK2 = 0 | LMTK2 = 0 | LYN 0 | MAP2K1 = 0 | MAP2K2 = 0 | MAP4K2 = 0 | MAPK1 = 0 | MAPK4 = 0 | MAPKAPK2 = 0 | MKNK1 = 0 | NTRK2 = 0 | NTRK3 = 0 | PAK4 = 0 | PBK 0 | PDGFRB 0 | PDK1 = 0

C=CC(=O)Nc1cccc(Nc2nc(Nc3ccc(N4CCN(C(C)=O)CC4)cc3OC)ncc2C(F)(F)F)c1 [Rociletinib] (10 µM)
inactive: IRAK3 = 0 | JAK1 = 0 | LCK 0 | LIMK1 = 0 | LIMK2 = 0 | LMTK2 = 0 | LYN 0 | MAP2K1 = 0 | MAP2K2 = 0 | MAP4K2 = 0 | MAPK1 = 0 | MAPK4 = 0 | MAPKAPK2 = 0 | MKNK1 = 0 | NTRK2 = 0 | NTRK3 = 0 | PAK4 = 0 | PBK 0 | PDGFRB 0 | PDK1 = 0

Reprinted at random: 2 entries already listed
FC(F)(c1ccc2ncccc2c1)c1nnc2ccc(-c3ccncc3)nn12 (10 µM)
inactive: IRAK3 = 0 | JAK1 = 0 | LCK 0 | LIMK1 = 0 | LIMK2 = 0 | LMTK2 = 0 | LYN 0 | MAP2K1 = 0 | MAP2K2 = 0 | MAP4K2 = 0 | MAPK1 = 0 | MAPK4 = 0 | MAPKAPK2 = 0 | MKNK1 = 0 | NTRK2 = 0 | NTRK3 = 0 | PAK4 = 0 | PBK 0 | PDGFRB 0 | PDK1 = 0

Cc1ccc2nc(NCCN)c3ncc(C)n3c2c1 (2.5 µM)
inactive: IRAK3 = 0 | JAK1 = 0 | LCK 0 | LIMK1 = 0 | LIMK2 = 0 | LMTK2 = 0 | LYN 0 | MAP2K1 = 0 | MAP2K2 = 0 | MAP4K2 = 0 | MAPK1 = 0 | MAPK4 = 0 | MAPKAPK2 = 0 | MKNK1 = 0 | NTRK2 = 0 | NTRK3 = 0 | PAK4 = 0 | PBK 0 | PDGFRB 0 | PDK1 = 0

Next entries follow:

C=C(CC[C@@H](C(=O)O)[C@H]1[C@H](O)C[C@@]2(C)C3=C(CC[C@]12C)[C@@]1(C)CC[C@H](OC(C)=O)C(C)(C)[C@@H]1CC3)C(C)C [Pachymic acid] (10 µM)
inactive: IRAK3 = 0 | JAK1 = 0 | LCK 0 | LIMK1 = 0 | LIMK2 = 0 | LMTK2 = 0 | LYN 0 | MAP2K1 = 0 | MAP2K2 = 0 | MAP4K2 = 0 | MAPK1 = 0 | MAPK4 = 0 | MAPKAPK2 = 0 | MKNK1 = 0 | NTRK2 = 0 | NTRK3 = 0 | PAK4 = 0 | PBK 0 | PDGFRB 0 | PDK1 = 0

CNC(=O)c1ccc(C)c(-n2c(C)cc(OCc3ccc(F)cc3F)c(Br)c2=O)c1 (10 µM)
inactive: IRAK3 = 0 | JAK1 = 0 | LCK 0 | LIMK1 = 0 | LIMK2 = 0 | LMTK2 = 0 | LYN 0 | MAP2K1 = 0 | MAP2K2 = 0 | MAP4K2 = 0 | MAPK1 = 0 | MAPK4 = 0 | MAPKAPK2 = 0 | MKNK1 = 0 | NTRK2 = 0 | NTRK3 = 0 | PAK4 = 0 | PBK 0 | PDGFRB 0 | PDK1 = 0

CCN1CCN(Cc2ccc(-c3cc4c(N[C@H](C)c5ccccc5)ncnc4[nH]3)cc2)CC1 (2.5 µM)
inactive: IRAK3 = 0 | JAK1 = 0 | LCK 0 | LIMK1 = 0 | LIMK2 = 0 | LMTK2 = 0 | LYN 0 | MAP2K1 = 0 | MAP2K2 = 0 | MAP4K2 = 0 | MAPK1 = 0 | MAPK4 = 0 | MAPKAPK2 = 0 | MKNK1 = 0 | NTRK2 = 0 | NTRK3 = 0 | PAK4 = 0 | PBK 0 | PDGFRB 0 | PDK1 = 0

O=C(N/N=C/c1coc2ccccc2c1=O)c1cccnc1 (10 µM)
inactive: IRAK3 = 0 | JAK1 = 0 | LCK 0 | LIMK1 = 0 | LIMK2 = 0 | LMTK2 = 0 | LYN 0 | MAP2K1 = 0 | MAP2K2 = 0 | MAP4K2 = 0 | MAPK1 = 0 | MAPK4 = 0 | MAPKAPK2 = 0 | MKNK1 = 0 | NTRK2 = 0 | NTRK3 = 0 | PAK4 = 0 | PBK 0 | PDGFRB 0 | PDK1 = 0
